The nature of this data set: general procedure: Fmoc solid-phase peptide synthesis; TentaGel-S-Ram-Fmoc (0.22-0.31 mmol/g); preformed HOBt esters (3 eq.). The conditions noted are these: whole synthesis, relative to resin load, scale of the general procedure 1 g resin.

For the substance h-PYY(3-36)-NH2 Pro-Pro 11-12, the isolated yield is listed as 5%.
The result for h-PYY-(13-36)-K29(H-IKPEA)-NH2 reads 5.5%.

These data come from patent US20070244041A1 (Reoscience A/S, priority 2004, published 2007).
